This passage reports binding results from publication PMC3507683, “Crystal Structure of the Hexachlorocyclohexane Dehydrochlorinase (LinA-Type2): Mutational Analysis, Thermostability and Enantioselectivity” (PLoS ONE, 2012).

The assay addresses Hexachlorocyclohexane dehydrochlorinase LinA-type2 (not stated (soil metagenome)) (UniProt P51697). The assay is described as follows: crystal structure; hanging drop, 293 K, 0.1 M trisodium citrate pH 5.5, 3% PEG 3350; space group P6(3)22; seven subunits in the asymmetric unit; 3.5 Å; both purified.

These are yes or no findings as the source states them, for the method shown. Some binding calls cover weakened binding; strength is not graded here.

B1: Hexachlorocyclohexane dehydrochlorinase LinA-type2 (enzyme, UniProt P51697 1-156, looked up)
chain: MSDLDRLASRAAIQDLYSDQLIGVDKRQEGRLASIWWDDAEWTIEGIGTYKGPEGALDLANNVLWPMYHETIHYGTNLRLEFVSADKVNGIGDVLCLGNLVEGNQSILIAAVYTNEYERRDGVWKFSKLNGCMNYFTPLAGIHFAPPGIHFAPSGA
notes: LinA-type2, gamma-hexachlorocyclohexane dehydrochlorinase variant obtained by PCR from metagenomic DNA of an HCH-contaminated soil (GenBank EU863871); It differs by 10 residues from LinA-type1 (= LinA-UT26 of Sphingobium japonicum UT26, 156 amino acids); The printed primers run from the ATG start codon to the last codon, without a stop codon; Homotrimer; also called -type2 protein; source: E. …
For the molecule B1, the binding entry is listed as “binds”.
